# Results as given in the supplement of paper PMC8728848.
# This is one part of the list.
# How the values were obtained:
# Assay in all cases: glycan array binding signal (z-score within array); higher = stronger binding
# Details in all cases: glycan notation: IUPAC condensed, linker removed
# [1] = biological target: GalNAc(b1-4)GlcNAc(b1-2)Man
# In short: (§1)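 From the Consortium for Functional Glycomics database, 3228 arrays were curated, keeping only those whose protein sequence was available. Binding is given as a within-array Z-score averaged across arrays sharing a protein sequence and across linkers. Negative Z-scores can be read as non-binding.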
# [2] = biological target: GalNAc(b1-4)GlcNAc(b1-2)Man(a1-3)[GalNAc(b1-4)GlcNAc(b1-2)Man(a1-6)]Man(b1-4)GlcNAc(b1-4)GlcNAc
# In short: as §1
# [3] = biological target: GalNAc(b1-4)GlcNAc(b1-3)GalNAc(b1-4)GlcNAc
# In short: as §1
# GalNAc(b1-4)GlcNAc6S = biological target: GalNAc(b1-4)GlcNAc6S
# In short: as §1
# GalNAc(b1-6)GalNAc = biological target: GalNAc(b1-6)GalNAc
# In short: as §1
# GalNAc3S(b1-4)GlcNAc = biological target: GalNAc3S(b1-4)GlcNAc
# In short: as §1
# GalNAc3S(b1-4)GlcNAc3S = biological target: GalNAc3S(b1-4)GlcNAc3S
# In short: as §1
# [4] = biological target: GalNAc3S(b1-4)[Fuc(a1-3)]GlcNAc
# In short: as §1
# GalNAc4S6S(b1-4)GlcNAc = biological target: GalNAc4S6S(b1-4)GlcNAc
# In short: as §1
# GalNAc6S(b1-4)GlcNAc = biological target: GalNAc6S(b1-4)GlcNAc
# In short: as §1
# Glc(a1-4)Glc = biological target: Glc(a1-4)Glc
# In short: as §1
# [5] = biological target: Glc(a1-4)Glc(a1-4)Glc(a1-4)Glc
# In short: as §1
# Glc(a1-6)Glc(a1-6)Glc = biological target: Glc(a1-6)Glc(a1-6)Glc
# In short: as §1
# [6] = biological target: Glc(a1-6)Glc(a1-6)Glc(a1-6)Glc
# In short: as §1
# Glc(b1-4)Glc = biological target: Glc(b1-4)Glc
# In short: as §1
# Glc(b1-6)Glc = biological target: Glc(b1-6)Glc
# In short: as §1
# GlcA(b1-3)Gal = biological target: GlcA(b1-3)Gal
# In short: as §1
# GlcA(b1-3)GlcNAc = biological target: GlcA(b1-3)GlcNAc
# In short: as §1
# GlcA(b1-6)Gal = biological target: GlcA(b1-6)Gal
# In short: as §1
# [7] = biological target: GlcA3S(b1-3)Gal(b1-4)GlcNAc(b1-2)Man
# In short: as §1
# [8] = biological target: GlcA3S(b1-3)Gal(b1-4)GlcNAc(b1-3)Gal(b1-4)Glc
# In short: as §1
# [9] = biological target: GlcNAc(a1-3)Gal(b1-4)GlcNAc
# In short: as §1
# [10] = biological target: GlcNAc(a1-4)Gal(b1-3)GlcNAc
# In short: as §1
# [11] = biological target: GlcNAc(a1-4)Gal(b1-4)GalNAc
# In short: as §1
# [12] = biological target: GlcNAc(a1-4)Gal(b1-4)GlcNAc
# In short: as §1
# [13] = biological target: GlcNAc(a1-4)Gal(b1-4)GlcNAc(b1-3)Gal(b1-4)Glc
# In short: as §1
# [14] = biological target: GlcNAc(a1-4)Gal(b1-4)GlcNAc(b1-3)Gal(b1-4)GlcNAc
# In short: as §1
# [15] = biological target: GlcNAc(a1-4)Gal(b1-4)GlcNAc(b1-3)Gal(b1-4)GlcNAc(b1-3)Gal(b1-4)GlcNAc
# In short: as §1
# [16] = biological target: GlcNAc(a1-4)Gal(b1-4)GlcNAc(b1-3)Gal(b1-4)[Fuc(a1-3)]GlcNAc(b1-3)Gal(b1-4)[Fuc(a1-3)]GlcNAc
# In short: as §1
# [17] = biological target: GlcNAc(a1-6)Gal(b1-4)GlcNAc
# In short: as §1
binder,measurement,setting,value
GS7807I-bvu-563-22-563 (Bacteroides vulgatus) (protein) IFSSCTDDFEKLNTSNIQVDPADLPFAAQCTEPMTYCYPPQQNMFQFWTNLTIDLYGGYFMTPNGNFTNGDMGENRGHSGGMYENYYLHIFNNTRRIIAQCDASGERGLSGVMRIVQAYGTLMTTDAYGPIPYSSILSGENEVYFEFDSQKDLYKAMLEDLSTAITDISAMGADEIAKLKSFDCWCNGDKDLWVKIANTMKLRMALRLSKRETEAGNAGMNLKAIATEAAQNTLATVNKDILIDKSLENEMWLMFNWGDCGFNANLVTIMSGTKDPRQPLYMTLNTGDIKNEAGTTTVAANSQYLGIRFASGLPAKPNSWGNFSGWIQGNNGSSYSMPLPIMKAAEAYFLLAEAKLRWDIGSESVKNLYENGIRVSMTNELAYRGAYAGIKEYPEGAVDAYINGTSTQIDYTDPIKAELSTPAVNKLSVKWDESASNEEKLERIITQKWLALFPLSTEGWAEQRRTGYPRFFPAFVNESNGAVNTEEGVRRVIYSSQAYDANAKGVEGGIKLLDEENSSKFGISGDKGGTHLWWDNADKGNF,glycan array binding signal (z-score),[1],0.444
same,glycan array binding signal (z-score),[2],1.39
same,glycan array binding signal (z-score),[3],0.274
same,glycan array binding signal (z-score),GalNAc(b1-4)GlcNAc6S,-0.201
same,glycan array binding signal (z-score),GalNAc(b1-6)GalNAc,0.445
same,glycan array binding signal (z-score),GalNAc3S(b1-4)GlcNAc,-1.13
same,glycan array binding signal (z-score),GalNAc3S(b1-4)GlcNAc3S,-0.31
same,glycan array binding signal (z-score),[4],-0.22
same,glycan array binding signal (z-score),GalNAc4S6S(b1-4)GlcNAc,0.241
same,glycan array binding signal (z-score),GalNAc6S(b1-4)GlcNAc,-0.718
same,glycan array binding signal (z-score),Glc(a1-4)Glc,0.111
same,glycan array binding signal (z-score),[5],0.004
same,glycan array binding signal (z-score),Glc(a1-6)Glc(a1-6)Glc,-0.703
same,glycan array binding signal (z-score),[6],-0.341
same,glycan array binding signal (z-score),Glc(b1-4)Glc,-0.567
same,glycan array binding signal (z-score),Glc(b1-6)Glc,-0.081
same,glycan array binding signal (z-score),GlcA(b1-3)Gal,0.185
same,glycan array binding signal (z-score),GlcA(b1-3)GlcNAc,2.5
same,glycan array binding signal (z-score),GlcA(b1-6)Gal,0.033
same,glycan array binding signal (z-score),[7],-0.698
same,glycan array binding signal (z-score),[8],-1.01
same,glycan array binding signal (z-score),[9],-0.479
same,glycan array binding signal (z-score),[10],1.66
same,glycan array binding signal (z-score),[11],0.602
same,glycan array binding signal (z-score),[12],-0.769
same,glycan array binding signal (z-score),[13],-1.2
same,glycan array binding signal (z-score),[14],-0.064
same,glycan array binding signal (z-score),[15],-0.676
same,glycan array binding signal (z-score),[16],2.71
same,glycan array binding signal (z-score),[17],1.37
